Paper PMC6281677
No constants are given. Whether binding was seen depends on the method and setting. In cells and extracts the contact can be indirect. A result given as binding can be weak or reduced; the word gives no strength.

What was measured:
[1] = target: FLS2 with Lysine 1120 mutated to Arginine, GFP-tagged (Arabidopsis thaliana) (UniProt Q9FL28); assay: co-IP
[2] = target: …-… 2 (FLS2) receptor, GFP-tagged (Arabidopsis thaliana) (UniProt Q9FL28); assay: co-IP; anti-GFP beads (Chromotek) on total protein of N. benthamiana leaves transiently co-expressing the GFP-tagged FLS2 protein and the tagged partner; leaves treated with MgCl2 or flg22 (1 uM, 10 min in the legends; 5 uM, 15 min in the methods); extraction buffer 50 mM HEPES pH 7.5, 1 mM EDTA, 0.5% Triton X-100, 1 mM DTT; on ice 30 min; blots with anti-myc, anti-HA, anti-GFP; for FLS2 with BIK1 also with SUMO1-HA co-expressed, with or without Desi3a-HA, in the presence of flg22

binding [1]: binds
binding [2]: binds
Substance: deSUMOylating enzyme Desi3a, HA-tagged (from UniProt A0A1P8AU07)
